This assay in a line: qHTS Assay to Find Inhibitors of Chronic Active B-Cell Receptor Signaling. The conditions noted are these: ABC-DLBCL IkBa-CBG/CBR reporter, luminescence ratio (green luciferase fused to IkBa over red control in TMD8 lymphoma cells), 4 h. An outline of the steps:
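TMD8 ABC-DLBCL cells carrying doxycycline-inducible green luciferase fused to IkappaBalpha plus unfused red luciferase were exposed to compounds (up to 46 uM) for 4 hrs at 37C. Activity came from the overlap-corrected green/red luminescence ratio.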
(In general: Quantitative high-throughput screening tests each substance at several concentrations.)

The mark [1] stands for this setting: measured here: CBR red luminescence, cell number.
Setting [2] is: measured here: IkBa-CBG green luminescence.

SMILES strings stand for the structures. The list shows a part of the results. Shown are side measurements of this screen, not its main read-out; they come without a call. The list favours compounds with an active or inconclusive main result. The note in brackets gives the kind of curve behind each potency; many fits are weak.

In general, AC50 refers to the concentration giving half of the maximal activity seen.

In the case of `Cc1ccc2nc(Cl)c(/C=N/Nc3ccc(C(=O)O)cc3)cc2c1`, the half-maximal activity concentration (AC50) under setting [1] is 0.112 µM [falling, full curve].
For the compound `COc1ccc(-c2c(C#CC(C)(C)O)c3ccccc3n2C)cc1`, under setting [1], the concentration at half-maximal activity (AC50) is 0.00461 µM [falling, full curve, poor fit].
The same measure, in the same setting: under `CCOC(=O)Cc1csc(NC(=O)NC2(C(F)(F)F)Oc3ccc(Cl)cc3O2)n1` (configuration not stated) stands 1.3 µM [rising, partial curve, poor fit].
For `O=C1CSC(c2cccnc2)N1c1ccc(F)cc1` (configuration not stated), the half-maximal activity concentration (AC50) under setting [1] is 1.64 µM [falling, full curve, poor fit].
For `O=C(c1cc2ccc3cccnc3c2[nH]1)N1CCN(c2cccc(Cl)c2)CC1`, the concentration at half-maximal activity (AC50) under setting [1] was 1.78 µM [rising, full curve, poor fit].
With `Cc1cc(C)c2c(NC(=S)NC(=O)c3ccccc3)nn(C)c2n1`, the half-maximal activity concentration (AC50) under setting [2] is 20 µM [falling, single point].
For the compound `O=C(CSc1ccc(Cl)cc1)N1CCN(c2c(Cl)cccc2[N+](=O)[O-])CC1`, the AC50 under setting [1] was 12.6 µM [falling, partial curve, poor fit].
Take `O=C(NC1CCCCC1)C(c1ccco1)N(C(=O)c1csnn1)c1ccc(Cl)cc1` (configuration not stated): the AC50 under setting [1] is 35.5 µM [falling, single point].
Take `COc1ccc(N/C=C\C(=O)c2ccc3ccccc3c2)cc1`: the AC50 under setting [1] is 0.316 µM [falling, full curve, poor fit].
On the same count and under the same terms, the result for `CCOc1ccc(Br)cc1S(=O)(=O)Nc1ccc(C(=O)OCC(=O)Nc2ccc(C#N)cc2)cc1` reads 35.5 µM [falling, single point]; that for `COc1ccc(/C=N/NC(=O)c2cc(C)oc2C)cc1OC`, 8.91 µM [falling, partial curve]; that for `Cc1ccc(-c2n[nH]c(=O)c3ccccc23)cc1S(=O)(=O)NCCO`, 4.61 µM [falling, single point].
On to `Cc1ccc(C)c(NC(=O)Cc2coc3cc4c(cc23)CCC4)c1`, for which, under setting [1], the AC50 is 2.31 µM [rising, partial curve, poor fit].
Still for that read-out and setting: under `COc1ccc(N2CCN(C(=O)c3oc4ccccc4c3C)CC2)cc1` stands 0.891 µM [rising, full curve, poor fit].
As to `Cc1[nH]c2ccccc2c1/C=N/NC(=O)C1CC1(c1ccccc1)c1ccccc1` (configuration not stated), the AC50 under setting [2] is 29.1 µM [rising, partial curve, poor fit].
On to `O=C(Nc1ccc(Oc2ccc(Br)cc2)cc1)C1=CC=CN2CCS(=O)(=O)N=C12`, for which the half-maximal activity concentration (AC50) under setting [1] was 10.3 µM [rising, partial curve, poor fit].
As to `CCOC(=O)CCCCCC(=O)Nc1ccc2c(c1)C(=O)N([C@H](C)CO)C[C@H](C)[C@@H](CN(C)C(=O)Nc1ccc(OC)cc1)O2`, the concentration at half-maximal activity (AC50) under setting [1] was 14.6 µM [rising, single point].

These data come from PubChem BioAssay AID493014 (National Center for Advancing Translational Sciences (NCATS), 2011).
